Experimental findings from PMC11925728, “Homeodomain protein PRRX1 anchors the Ku heterodimers at DNA double-strand breaks to promote nonhomologous end-joining” are described below.

In one assay the target is MBP-PA ΔN (9–217 aa) (UniProt P54821). Description: pull-down; MBP pull-down on amylose resin: 2.5 μg MBP-PRRX1 with ∼3 μg GST-Ku70/Ku80, 1 μg His-Ku70/Ku80 heterodimer or 2 μg His-PRRX1 in 400 μl NETN buffer (20 mM Tris-HCl pH 8.0, 100 mM NaCl, 0.5 mM EDTA, 0.5% NP-40), 4°C; both purified.
The next assay concerns the target MBP-PRRX1B (UniProt P54821). Described as above.
The target of assay [1] is FLAG-PA, transiently expressed (UniProt P54821). Nature of the assay: co-IP; anti-FLAG beads, lysates of transfected HEK293T cells in IP buffer (50 mM Tris-HCl pH 7.5, 150 mM NaCl, 1 mM EDTA, 1% NP-40), overnight at 4°C; DNase I added in one panel; IR or ETP treatment in the panels of FLAG- with EGFP-PRRX1.
Assay [2] deals with FLAG-PB, transiently expressed (UniProt P54821). The assay is described as above.
For a further assay, the target named is MBP-PRRX1A. Nature of the assay: pull-down; both purified.

These are yes or no findings as the source states them, for the method shown. A result given as binding can be weak or reduced; the word gives no strength. For some assays here: Binding seen in cells or lysates may run through a third protein.

On to His-PRRX1B (from UniProt P54821), for which the binding entry with MBP-PA ΔN (9–217 aa) and with MBP-PRRX1B was “binds” in each case.
Regarding EGFP-PB (from UniProt P54821), the binding result in assay [1] and in assay [2] was “binds” in each case.

B1: competing peptide (peptide)
peptide: GRKKRRQRRRQALERVFER
modifications: biotin at the N-terminus
B1: in the assay with MBP-PRRX1A, the binding result is listed as “binds”.
